Laboratory results taken from PubChem BioAssay AID687031 (Broad Institute, 2013).
The campaign covered roughly 1,400 compounds. About 50 (4%) were called active.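 Rule for the calls: active = fitted curve reaches 30% CPE protection at or below the top valid dose, with every test run called active; inconclusive = test runs disagree, some active and some not; inactive = every test run inactive, including effects in the wrong direction.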 This is one part of the list. Measured potencies and affinities stand elsewhere.

Assay: Dengue virus 2 cytopathic effect protection, dose response, BHK-21 cells, ATP luminescence, cherry-pick (AID 687031);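 note: 0% = infected DMSO wells and 100% = uninfected cell wells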
Settings: BHK-21 DENV2 CPE protection, 5 d; at 19.5 µM (top of the series) unless noted

CPE protection (higher = active), inactive:
Cc1ccc(C(=O)Nc2ccc(N3CCN(C)CC3)cc2)cc1C -22.4%, C[C@@H]1CN([C@H](C)CO)C(=O)Cc2cc(NC(=O)CCCCCC(=O)Nc3ccccc3N)ccc2O[C@@H]1CN(C)Cc1ccc(Cl)c(Cl)c1 -2.74%, CCOc1cc(/C=N/NC(=O)C(=O)NC2CC2)cc(Br)c1O -15.5%, COc1cccc(CC(=O)OCC(=O)Nc2nnc(-c3ccccc3)o2)c1 -26.5%, CCN(CC)S(=O)(=O)c1ccc(C)c(NC(=O)COc2ccc(Br)cc2Cl)c1 14.4%, NC(=O)C1CCN(CC(O)COc2ccc(-c3ccccc3)cc2)CC1 (stereo not drawn) -14%, O=C(c1ccc2nccnc2c1)N1CCN(c2ccccc2)CC1 -31%, COc1ccc(S(=O)(=O)Nc2ccc3c(c2)C(=O)N([C@@H](C)CO)C[C@H](C)[C@H](CN(C)Cc2ccncc2)OCCCC[C@H](C)O3)cc1 40.1%, Cc1ccccc1C1=NC(C(F)(F)F)(C(F)(F)F)c2c(n(-c3ccc(F)cc3)c(=O)[nH]c2=O)N1 11.1%, COc1ccc(C2NC(=O)NC(C)=C2C(=O)Nc2cccc(C)c2C)cc1 (stereo not drawn) -19.3%, O=C1NC[C@H](Cc2ccccc2)N(CC2CCN(CCCCc3ccccc3)CC2)C1=O 9.67%, O=C(NC1CC1)c1ccc(NC(=O)C2CCCC2)cc1 10.5%, CC(C)c1ccc(NC(=O)[C@H](NC(=O)[C@@H]2Cc3ccccc3CN2)c2ccccc2)cc1 -3.59%, COc1ccc(C(CCN2CCOCC2)c2c(OC)cc(OC)c3c(C)cc(=O)oc23)cc1 (stereo not drawn) 27.1%, CCOC(=O)C1=CN(Cc2cccc(Br)c2)S(=O)(=O)N(C)C1C (stereo not drawn) -16.8%, CCS(=O)(=O)Nc1ccc(C(=O)NCCSc2ccccc2)cc1 -3.93%, CC1CC(C)CN(C(=O)COC(=O)c2nccnc2N)C1 (stereo not drawn) 8.89%, COc1ccc(C(=O)NCCOc2cccc(Oc3ccccc3)c2)cc1OC -3.52%, CCOc1ccc(/C=N/n2nnnc2N)cc1OCC -4.48%, O=C(NCc1ccncc1)c1cccc(NS(=O)(=O)c2ccc(F)c(F)c2)c1 -16.2%, NC(c1csc(NC(=O)Nc2cccc(Cl)c2)n1)C1CCCCC1 (stereo not drawn) -2.28%, CNC[C@@H]1OCCCC[C@H](C)Oc2ccc(NS(=O)(=O)c3c(C)noc3C)cc2C(=O)N([C@@H](C)CO)C[C@@H]1C 4.03%, CCCC/C=C/c1cccc2nncn12 -9.92%
